# Assay: general procedure: peptide synthesis; 2-chlorotrityl chloride resin; TBTU/DIPEA
# Conditions: whole synthesis, HPLC and mass spectrometry
substance,measurement,value
DOTA-Ahx-VGB3,final HPLC purity,>86%

# Reference: PMC11279866 (Pharmaceutics, 2024)
